Assay [1] concerns the target GST-PsAGL9 fusion protein (Paeonia suffruticosa (tree peony)) (UniProt V9I0Q3). Nature of the assay: pull-down; GST fusion proteins immobilised on Glutathione Magnetic Agarose Beads; MBP-PsAGL9 incubated with the beads; immunoblot with anti-MBP or anti-GST; both purified. On the technique in general: A western blot detects proteins with antibodies after separation by electrophoresis.

Sequences of proteins named here, by UniProt entry; tags and fusion partners are left off. A change or cut given only in a name is not applied to a line headed by its entry.
UniProt V9I0Q3: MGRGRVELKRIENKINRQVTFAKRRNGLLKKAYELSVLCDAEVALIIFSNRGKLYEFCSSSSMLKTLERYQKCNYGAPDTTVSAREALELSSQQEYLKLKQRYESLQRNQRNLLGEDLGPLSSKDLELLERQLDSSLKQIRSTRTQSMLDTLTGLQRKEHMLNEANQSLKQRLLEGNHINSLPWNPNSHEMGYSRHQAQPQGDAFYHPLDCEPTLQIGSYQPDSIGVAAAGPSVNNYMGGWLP

The target in assay [2] is GST-PsAGL6 fusion protein (Paeonia suffruticosa (tree peony)). The assay is described as above.

Results are given in words; binding and its absence hold for the method and conditions named. Binding calls can cover weak binding; strength is not graded here.

Take “MBP-PsAGL9 fusion protein (from UniProt V9I0Q3)”: the binding result in assay [1] and in assay [2] was “binds” in each case.

Values taken from paper PMC11997425, “MADS-domain transcription factor AGAMOUS LIKE-9 participates in the gibberellin pathway to promote bud dormancy release of tree peony”.
